Data from article PMC12219410.
Results are given in words; binding and its absence hold for the method and conditions named. A result given as binding can be weak or reduced; the word gives no strength. For part of these data: In cells and extracts the contact can be indirect.

T1: mCherry::DRSH-1 (C. elegans) (UniProt O01326)
T1 sequence: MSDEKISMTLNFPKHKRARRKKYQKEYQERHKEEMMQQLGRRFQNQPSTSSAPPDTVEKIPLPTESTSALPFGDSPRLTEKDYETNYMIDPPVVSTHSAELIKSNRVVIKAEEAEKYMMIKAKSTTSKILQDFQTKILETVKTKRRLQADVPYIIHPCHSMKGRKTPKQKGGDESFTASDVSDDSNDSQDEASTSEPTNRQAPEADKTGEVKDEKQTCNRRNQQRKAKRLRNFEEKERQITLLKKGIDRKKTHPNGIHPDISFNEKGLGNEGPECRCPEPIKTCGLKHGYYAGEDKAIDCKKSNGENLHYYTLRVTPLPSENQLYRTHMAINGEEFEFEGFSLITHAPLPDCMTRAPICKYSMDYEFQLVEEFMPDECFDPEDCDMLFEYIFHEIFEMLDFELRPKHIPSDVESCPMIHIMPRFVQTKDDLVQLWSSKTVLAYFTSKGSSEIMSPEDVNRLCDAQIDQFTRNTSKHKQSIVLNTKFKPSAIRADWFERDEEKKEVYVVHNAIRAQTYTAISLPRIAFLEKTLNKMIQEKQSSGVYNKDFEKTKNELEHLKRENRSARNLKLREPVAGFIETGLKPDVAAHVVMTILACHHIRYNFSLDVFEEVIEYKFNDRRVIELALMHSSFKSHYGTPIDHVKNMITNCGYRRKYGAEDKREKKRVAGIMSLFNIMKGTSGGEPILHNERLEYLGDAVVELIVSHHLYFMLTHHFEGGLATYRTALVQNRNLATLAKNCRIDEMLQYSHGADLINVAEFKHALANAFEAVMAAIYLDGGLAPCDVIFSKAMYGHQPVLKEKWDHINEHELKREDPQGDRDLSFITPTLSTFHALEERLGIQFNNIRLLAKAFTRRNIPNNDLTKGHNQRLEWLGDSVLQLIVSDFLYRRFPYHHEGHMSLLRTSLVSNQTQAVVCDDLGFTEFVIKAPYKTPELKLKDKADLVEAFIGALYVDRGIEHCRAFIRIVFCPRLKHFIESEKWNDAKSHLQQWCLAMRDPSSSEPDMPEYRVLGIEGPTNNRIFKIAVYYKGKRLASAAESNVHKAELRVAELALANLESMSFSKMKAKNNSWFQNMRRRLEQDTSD


Assays:
[1] = target: T1, mCherry::DRSH-1 (C. elegans); assay: SEC; C. elegans lysate treated with 0.5 μg/μL RNase I for 1 h at 4 °C, separated on Superdex 200 Increase 10/300 GL; fractions analysed by Western blot for GFP and mCherry
[2] = target: T1, mCherry::DRSH-1 (C. elegans); assay: co-IP; mCherry::DRSH-1 precipitated from gravid adult C. elegans lysate with RFP-Trap magnetic agarose beads, 1 h at 4 °C; 50 mM Tris-Cl pH 7.4, 100 mM KCl, 2.5 mM MgCl2, 0.1% Igepal CA-630; Western blot for GFP
[3] = target: PASH-1[Δ12-148]::GFP (C. elegans); assay: co-IP; PASH-1::GFP forms precipitated from gravid adult C. elegans lysate with GFP-Trap magnetic agarose beads, 1 h at 4 °C; 50 mM Tris-Cl pH 7.4, 100 mM KCl, 2.5 mM MgCl2, 0.1% Igepal CA-630; Western blot for mCherry
[4] = target: PASH-1[G179R]::GFP (C. elegans); assay: as above
PASH-1::GFP (C. elegans) = assay: as above

binding [1]	binding [2]	binding [3]	binding [4]	binding (PASH-1::GFP (C. elegans))	Molecule
binds	binds				PASH-1[W180A]::GFP (C. elegans)
binds	binds				PASH-1::GFP (C. elegans)

Continued, molecule first:

Molecule	binding [1]	binding [2]	binding [3]	binding [4]	binding (PASH-1::GFP (C. elegans))
PASH-1[G179R]::GFP (C. elegans)	binds	binds			
mCherry::DRSH-1 (enzyme, UniProt O01326 1-1086) MSDEKISMTLNFPKHKRARRKKYQKEYQERHKEEMMQQLGRRFQNQPSTSSAPPDTVEKIPLPTESTSALPFGDSPRLTEKDYETNYMIDPPVVSTHSAELIKSNRVVIKAEEAEKYMMIKAKSTTSKILQDFQTKILETVKTKRRLQADVPYIIHPCHSMKGRKTPKQKGGDESFTASDVSDDSNDSQDEASTSEPTNRQAPEADKTGEVKDEKQTCNRRNQQRKAKRLRNFEEKERQITLLKKGIDRKKTHPNGIHPDISFNEKGLGNEGPECRCPEPIKTCGLKHGYYAGEDKAIDCKKSNGENLHYYTLRVTPLPSENQLYRTHMAINGEEFEFEGFSLITHAPLPDCMTRAPICKYSMDYEFQLVEEFMPDECFDPEDCDMLFEYIFHEIFEMLDFELRPKHIPSDVESCPMIHIMPRFVQTKDDLVQLWSSKTVLAYFTSKGSSEIMSPEDVNRLCDAQIDQFTRNTSKHKQSIVLNTKFKPSAIRADWFERDEEKKEVYVVHNAIRAQTYTAISLPRIAFLEKTLNKMIQEKQSSGVYNKDFEKTKNELEHLKRENRSARNLKLREPVAGFIETGLKPDVAAHVVMTILACHHIRYNFSLDVFEEVIEYKFNDRRVIELALMHSSFKSHYGTPIDHVKNMITNCGYRRKYGAEDKREKKRVAGIMSLFNIMKGTSGGEPILHNERLEYLGDAVVELIVSHHLYFMLTHHFEGGLATYRTALVQNRNLATLAKNCRIDEMLQYSHGADLINVAEFKHALANAFEAVMAAIYLDGGLAPCDVIFSKAMYGHQPVLKEKWDHINEHELKREDPQGDRDLSFITPTLSTFHALEERLGIQFNNIRLLAKAFTRRNIPNNDLTKGHNQRLEWLGDSVLQLIVSDFLYRRFPYHHEGHMSLLRTSLVSNQTQAVVCDDLGFTEFVIKAPYKTPELKLKDKADLVEAFIGALYVDRGIEHCRAFIRIVFCPRLKHFIESEKWNDAKSHLQQWCLAMRDPSSSEPDMPEYRVLGIEGPTNNRIFKIAVYYKGKRLASAAESNVHKAELRVAELALANLESMSFSKMKAKNNSWFQNMRRRLEQDTSD			binds	binds	binds
